The values below are quoted from earlier work in patent US10662445B2, “Process for the production of bio-butanol by fermentation of glycosidic waste matter” (priority 2018, dated 2020).

The test system of data set [1] is Mixed culture wastewater plant. To be noted: aqueous-organic 9:1, cited from earlier work.
For data set [2], the system named is Pseudomonas putida ATCC 11172. The following applies: 2-undecanone; 2:1; 4000 mg/L (168 in the aqueous phase); cited from earlier work.
The subject of data set [3] is Pseudomonas mandelii. To be noted: 2-Undecanone, diethyl sebacate; 3:1; 4000-5000 mg/L; cited from earlier work.

Like-named read-outs stand apart in the source and are kept apart here.

As for `C=Cc1ccccc1` [Styrene], the Time to biodegrade in data set [1] (Silicone oil, 230 mg/L) is given as 5 h.
Turning to `O=[N+]([O-])c1ccc(O)cc1` [4-nitrophenol], the Time to biodegrade in data set [1] (2-undecanone, 350 mg/L) is 7 h.
In the case of `Oc1ccccc1` [Phenol], in data set [2], the Lag-phase is on record as 12 h lag-phase; and the “Time to total consumption” value is listed as “Total consumption in 60 hours”. Further, in data set [3], the Lag-phase is recorded as 24 h lag-phase, and the “Time to total consumption” value was “Total consumption in 75 h”.
